# The list shows a part of the results. Shown are side measurements of this screen, not its main read-out; they come without a call. The list favours compounds with an active or inconclusive main result. Potencies come from curve fits of mixed quality, noted in brackets.
# Assay: qHTS Assay for Lipid Storage Modulators in Drosophila S3 Cells;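 as to cell number change: cells counted by Cell Tracker Red CMTPX staining in the red channel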
# Conditions: BODIPY lipid droplet fluorescence, 18-24 h; for cell number change: measured here: cell count max response, cells fed with added oleic acid
# Procedure, shortened: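 Drosophila S3 cells loaded with oleic acid (400 uM, as added) and compounds at several concentrations; lipid droplets imaged by 488-nm laser-scanning cytometry, 500–530 nm intensity and object ratio to cell channel. Percent activity normalized to 20 uM Triacsin C.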
# [1] = measured here: cell number channel AC50, cells fed with added oleic acid
# [2] = measured here: lipid fluorescence (Fed channel) AC50, cells fed with added oleic acid
SMILES,cell number change,AC50 [1],AC50 [2]
CCOC(=O)/C=C/C(=O)OCC(=O)Nc1ccc(C)cc1,7.45%,"0.82 µM [falling, single point]",–
O=C(Nc1ccc(Cl)c(Cl)c1)N1CC=C(c2ccccc2)CC1,11.5%,–,"11.6 µM [falling, partial curve]"
CCOc1ccc(C(=O)NCC(c2ccco2)N2CCc3ccccc3C2)cc1 (configuration not stated),27.3%,"1.3 µM [rising, full curve, poor fit]",–
CC1CN(C(=O)COC(=O)c2ccc(C#N)cc2)CC(C)O1 (configuration not stated),25.6%,–,"29.1 µM [rising, partial curve, poor fit]"
Cc1ccccc1CN1CCC(N2CCC(C(=O)NCC3CCCO3)CC2)CC1 (configuration not stated),12.4%,–,"29.1 µM [rising, single point]"
O=C(C1CCC(=O)N1Cc1ccccc1Cl)N1CCN(c2ccc(F)cc2)CC1 (configuration not stated),22.3%,–,–
Cc1ccc(NS(=O)(=O)c2c(C)[nH]c(C)c2C(=O)N2CCCCC2)c(Cl)c1,-8.55%,–,"20.6 µM [falling, single point]"
Cc1cc(C(=O)N2CCCC(C(=O)c3ccc(Cl)cc3C)C2)no1 (configuration not stated),-5.78%,–,–
O=C1NC(c2cccnc2)C(C(=O)c2cccs2)C(O)(C(F)(F)F)N1 (configuration not stated),46.7%,"2.06 µM [rising, full curve, poor fit]","2.06 µM [rising, partial curve]"
CCN(CC)c1ccc(/C=N/N2CCN(Cc3ccccc3)CC2)c(O)c1,-25.6%,–,"29.1 µM [falling, single point]"
COc1ccc(-c2cc(CNC(=O)CN3CCN(C)CC3)on2)cc1,–,–,"20.6 µM [falling, partial curve]"
COc1ccc(OC(C)C(=O)Nc2ccc(F)cc2F)cc1 (configuration not stated),30%,–,"32.6 µM [rising, single point]"
O=C(Nc1ccc(Cl)c([N+](=O)[O-])c1)c1ccc(NCCCN2CCOCC2)c([N+](=O)[O-])c1,-59.9%,"7.31 µM [falling, partial curve]","11.6 µM [falling, partial curve]"
COc1ccc(NC(=O)c2cc3c(CO)cnc(C)c3oc2=Nc2cccc(F)c2)c(OC)c1,-26.1%,–,"0.651 µM [falling, full curve]"
C/C(=N\OCC(=O)N/N=C/c1ccccc1O)c1cccs1,46.3%,"16.4 µM [rising, partial curve]","20.6 µM [rising, partial curve]"
Cc1onc(-c2ccccc2)c1C(=O)Nc1ccccc1N1CCOCC1,–,–,"0.58 µM [rising, single point]"
c1ccc(N2OCC3Cn4c(nc5ccccc54)C32)cc1 (configuration not stated),10.5%,–,"20.6 µM [rising, partial curve]"
CN(C(=O)CSC1=NC2C(N=N1)c1cc(Br)ccc1N2C)C1CCCCC1 (configuration not stated),-8.98%,–,–
Cc1cc(=O)cc(C)n1-c1ccc(Cl)cc1,173%,"16.4 µM [rising, partial curve]",–

SMILES,cell number change,AC50 [1],AC50 [2]
CC1Cc2cccc3c(O)c(C(=O)c4nn[nH]n4)c(=O)n1c23 (configuration not stated),-0.79%,"0.103 µM [falling, single point]","0.326 µM [falling, full curve, poor fit]"
CCOc1ccc(C)cc1S(=O)(=O)Nc1ccc(Cl)cn1,56.7%,"0.731 µM [rising, full curve]","20.6 µM [rising, partial curve]"
O=C(Nc1ccc(F)cc1F)c1cccnc1,9.03%,"0.103 µM [rising, full curve]","6.51 µM [rising, single point]"
Cc1cccc(OCCN2CCOCC2)c1C,-1.66%,–,"0.103 µM [rising, full curve, poor fit]"
C=CCNC(=O)c1ccccc1NC(=O)c1cccc2ccccc12,45.8%,"0.184 µM [rising, partial curve, poor fit]","3.26 µM [rising, partial curve, poor fit]"
Cc1cc(C(=O)N2CCOCC2)c(C)o1,-5.73%,"0.00651 µM [falling, full curve, poor fit]","0.58 µM [falling, single point]"
Nc1nnc(SCC(=O)OCC(=O)NC23CC4CC(CC(C4)C2)C3)s1,6.91%,"6.51 µM [falling, partial curve, poor fit]","6.51 µM [falling, partial curve, poor fit]"
O=C(O)CSc1nnc(-c2ccc3c(c2)OCO3)n1-c1ccccc1,4.14%,–,–
CCN(CC)S(=O)(=O)c1ccc(C(=O)NCC(=O)NC2CC2)cc1,-0.858%,–,"20.6 µM [falling, partial curve, poor fit]"
CCCNC(=O)C(Cc1ccc(OC)cc1)NC(=O)c1ccc(Cl)cc1 (configuration not stated),-50.3%,"16.4 µM [falling, single point]","20.6 µM [falling, single point]"
COc1ccccc1OCC(=O)N(Cc1nnc(-c2ccccc2Cl)o1)C1CC1,19.2%,–,"29.1 µM [falling, single point]"
CCc1cccc2c(C(=O)COC(=O)c3ccc([N+](=O)[O-])s3)c[nH]c12,-1.7%,–,"20.6 µM [falling, partial curve]"
O=C(C1=C(O)C(=O)N(CCN2CCOCC2)C1c1cccc(O)c1)c1cc2ccccc2o1 (configuration not stated),21.8%,–,"23.1 µM [rising, single point]"
Cc1cc(C=O)c(C)n1-c1cc(C(=O)O)cc(C(=O)O)c1,12.4%,–,–
Cc1ccc(S(=O)(=O)Nc2ccc3c(c2)n(C)c(=O)n3C)c(C)c1,-10.8%,–,–
Cc1cc(C(=O)OCC(=O)NC(C)c2ccccc2)c(C)o1 (configuration not stated),132%,"4.61 µM [rising, full curve]","4.11 µM [rising, partial curve]"
CCOc1cc(C(=S)N2CCOCC2)ccc1OC,-21.6%,–,"16.4 µM [falling, partial curve]"
COc1ccc(CCNC(=O)C2CCC(CNS(=O)(=O)c3ccc(F)cc3)CC2)cc1OC (configuration not stated),20.7%,"0.00461 µM [falling, full curve, poor fit]",–

# Copied from the list:
# Cc1ccccc1CN1CCC(N2CCC(C(=O)NCC3CCCO3)CC2)CC1 (configuration not stated) | cell number change: 12.4%
# CCN(CC)c1ccc(/C=N/N2CCN(Cc3ccccc3)CC2)c(O)c1 | cell number change: -25.6%
# O=C(C1=C(O)C(=O)N(CCN2CCOCC2)C1c1cccc(O)c1)c1cc2ccccc2o1 (configuration not stated) | cell number change: 21.8%

# Reference: PubChem BioAssay AID2685 (National Center for Advancing Translational Sciences (NCATS), 2010)
